Assay results from patent publication US11717508B2, “Compounds, compositions, and methods for inhibiting bacterial growth” (priority 2016, dated 2023).
“And” between values parts separate entries of the source, which are not always exact repeats. Identical values can stand only once. Like-named read-outs stand apart in the source and are kept apart here. The source gives many values for each of these; only a part stands here.

System: DosRST regulon
Format: cell-based

C[C@@H]1CC[C@H]2[C@@H](C)C(=O)O[C@@H]3O[C@]4(C)CC[C@@H]1[C@]32OO4 [HC101A, artemisinin, reference compound]
Counts per million (CPM) WT_HC101A (gene MT0037 (Rv0032 bioF2)): 35.24 CPM and 27.75 CPM
log2 Fold change (gene MT0037 (Rv0032 bioF2)): −1.613
Counts per million (CPM) WT_HC101A (gene MT0038 (Rv0033)): 2.484 CPM and 3.491 CPM
log2 Fold change (gene MT0038 (Rv0033)): −2.538
Counts per million (CPM) WT_HC101A (gene MT0040 (Rv0035 fadD34)): 24.97 CPM and 29.56 CPM
log2 Fold change (gene MT0040 (Rv0035 fadD34)): −1.712
Counts per million (CPM) WT_HC101A (gene MT0179 (Rv0170)): 123.2 CPM and 102.2 CPM
Counts per million (CPM) WT_HC101A (gene MT0180 (Rv0171)): 138.6 CPM and 130 CPM
Counts per million (CPM) WT_HC101A (gene MT0181 (Rv0172)): 183.6 CPM and 197.8 CPM
Counts per million (CPM) WT_HC101A (gene MT0182 (Rv0173 IprK)): 87.14 CPM and 107.7 CPM
Counts per million (CPM) WT_HC101A (gene MT0183 (Rv0174)): 349 CPM and 411.7 CPM
Counts per million (CPM) WT_HC101A (gene MT0241 (Rv0231 fadE4)): 59.55 CPM and 72.38 CPM
Counts per million (CPM) WT_HC101A (gene MT0244 (Rv0233 nrdB)): 37.26 CPM and 30.02 CPM
Counts per million (CPM) WT_HC101A (gene MT0329 (Rv0315)): 70.6 CPM and 95.13 CPM
Counts per million (CPM) WT_HC101A (gene MT0417): 28.96 CPM and 22.92 CPM
Counts per million (CPM) WT_HC101A (gene MT0423 (Rv0410c pknG)): 514.1 CPM and 411.9 CPM
Counts per million (CPM) WT_HC101A (gene MT0424 (Rv0411c glnH)): 282.7 CPM and 250 CPM
Counts per million (CPM) WT_HC101A (gene MT0425 (Rv0412c)): 385.5 CPM and 301.3 CPM
Counts per million (CPM) WT_HC101A (gene MT0429 (Rv0416)): 5.818 CPM and 5.876 CPM
Counts per million (CPM) WT_HC101A (gene MT0434): 27.78 CPM and 21.99 CPM
Counts per million (CPM) WT_HC101A (gene MT0524): 188.7 CPM and 239.4 CPM
Counts per million (CPM) WT_HC101A (gene MT0595 (Rv0569)): 36.09 CPM and 36.48 CPM
Counts per million (CPM) WT_HC101A (gene MT0596 (Rv0570 nrdZ)): 90.47 CPM and 115.7 CPM
Counts per million (CPM) WT_HC101A (gene MT0597 (Rv0571c)): 81.52 CPM and 88.38 CPM
Counts per million (CPM) WT_HC101A (gene MT0599 (Rv0572c)): 38.44 CPM and 70.87 CPM
Counts per million (CPM) WT_HC101A (gene MT0601 (Rv0573c)): 10.2 CPM and 13.27 CPM
Counts per million (CPM) WT_HC101A (gene MT0602 (Rv0574c)): 28.89 CPM and 33.92 CPM
Counts per million (CPM) WT_HC101A (gene MT0637 (Rv0608)): 30.14 CPM and 24.84 CPM
Counts per million (CPM) WT_HC101A (gene MT0735 (Rv0708 rplP)): 74.26 CPM and 58.88 CPM
Counts per million (CPM) WT_HC101A (gene MT0736 (Rv0709 rpmC)): 109.7 CPM and 91.93 CPM
Counts per million (CPM) WT_HC101A (gene MT0741): 127.5 CPM and 136.8 CPM
Counts per million (CPM) WT_HC101A (gene MT0741.1 (Rv0715 rplX)): 117.6 CPM and 111 CPM
Counts per million (CPM) WT_HC101A (gene MT0742.1 (Rv0717 rpsN)): 74.79 CPM and 59 CPM
Counts per million (CPM) WT_HC101A (gene MT0747 (Rv0722 rpmD)): 51.71 CPM and 38.11 CPM
Counts per million (CPM) WT_HC101A (gene MT0845 (Rv0823c)): 1,309.20 CPM and 1,158.35 CPM
Counts per million (CPM) WT_HC101A (gene MT0846 (Rv0824c desA1)): 2,534.91 CPM and 2,497.59 CPM
Counts per million (CPM) WT_HC101A (gene MT0877 (Rv0854)): 32.03 CPM and 42.41 CPM
Counts per million (CPM) WT_HC101A (gene MT0898): 19.09 CPM and 37.47 CPM
Counts per million (CPM) WT_HC101A (gene MT0908 (Rv0885)): 115.6 CPM and 190.5 CPM
Counts per million (CPM) WT_HC101A (gene MT0909 (Rv0886 fprB)): 22.29 CPM and 38.69 CPM
Counts per million (CPM) WT_HC101A (gene MT0911 (Rv0888)): 8.106 CPM and 5.527 CPM
Counts per million (CPM) WT_HC101A (gene MT1002 (Rv0974c accD2)): 418.3 CPM and 235.3 CPM
Counts per million (CPM) WT_HC101A (gene MT1019 (Rv0990c)): 34.58 CPM and 43.4 CPM
Counts per million (CPM) WT_HC101A (gene MT1020): 343 CPM and 416.1 CPM
Counts per million (CPM) WT_HC101A (gene MT1056 (Rv1037c)): 452 CPM and 332.9 CPM
Counts per million (CPM) WT_HC101A (gene MT1095 (Rv1065)): 232.6 CPM and 199.4 CPM
Counts per million (CPM) WT_HC101A (gene MT1106 (Rv1076 lipU)): 66.48 CPM and 91.17 CPM
log2 Fold change (gene MT1106 (Rv1076 lipU)): −1.02
Counts per million (CPM) WT_HC101A (gene MT1126 (Rv1094 dosA2)): 2,656.44 CPM and 2,736.08 CPM
log2 Fold change (gene MT1126 (Rv1094 dosA2)): −1.332
Counts per million (CPM) WT_HC101A (gene MT1214 (Rv1177 fdxC)): 754.7 CPM and 847.9 CPM
log2 Fold change (gene MT1214 (Rv1177 fdxC)): −1.296
Counts per million (CPM) WT_HC101A (gene MT1233 (Rv1195 PE)): 121.2 CPM and 83.32 CPM
log2 Fold change (gene MT1233 (Rv1195 PE)): −2.267
Counts per million (CPM) WT_HC101A (gene MT1234 (Rv1196 PPE)): 155.8 CPM and 129.3 CPM
log2 Fold change (gene MT1234 (Rv1196 PPE)): −1.874
Counts per million (CPM) WT_HC101A (gene MT1235): 117.9 CPM and 84.42 CPM
log2 Fold change (gene MT1235): −1.606
Counts per million (CPM) WT_HC101A (gene MT1236): 78.32 CPM and 44.97 CPM
log2 Fold change (gene MT1236): −2.018
Counts per million (CPM) WT_HC101A (gene MT1314 (Rv1277)): 209.3 CPM and 172.8 CPM
log2 Fold change (gene MT1314 (Rv1277)): −1.113
Counts per million (CPM) WT_HC101A (gene MT1322 (Rv1284)): 175.1 CPM and 138.8 CPM
log2 Fold change (gene MT1322 (Rv1284)): −2.008
log2 Fold change (gene MT1385): −1.321
Counts per million (CPM) WT_HC101A (gene MT1414.1): 7.648 CPM and 6.866 CPM
log2 Fold change (gene MT1414.1): −1.264
Counts per million (CPM) WT_HC101A (gene MT1430 (Rv1386 PE)): 44.55 CPM and 57.72 CPM
log2 Fold change (gene MT1430 (Rv1386 PE)): −1.047
Counts per million (CPM) WT_HC101A (gene MT1431 (Rv1387 PPE)): 210.4 CPM and 246.3 CPM
log2 Fold change (gene MT1431 (Rv1387 PPE)): −1.353
Counts per million (CPM) WT_HC101A (gene MT1454 (Rv1439c)): 4.118 CPM and 4.771 CPM
log2 Fold change (gene MT1454 (Rv1439c)): 1.126
Counts per million (CPM) WT_HC101A (gene MT1585.1): 142.6 CPM and 232.8 CPM
log2 Fold change (gene MT1585.1): −2.593
Counts per million (CPM) WT_HC101A (gene MT1586 (Rv1535)): 48.51 CPM and 45.15 CPM
log2 Fold change (gene MT1586 (Rv1535)): −1.6
Counts per million (CPM) WT_HC101A (gene MT1600 (Rv1550 fadD11)): 9.74 CPM and 9.135 CPM
log2 Fold change (gene MT1600 (Rv1550 fadD11)): −1.251
Counts per million (CPM) WT_HC101A (gene MT1627): 14.64 CPM and 15.53 CPM
log2 Fold change (gene MT1627): −1.258
Counts per million (CPM) WT_HC101A (gene MT1638 (Rv1602 hisH)): 205 CPM and 158.6 CPM
log2 Fold change (gene MT1638 (Rv1602 hisH)): −1.137
Counts per million (CPM) WT_HC101A (gene MT1692 (Rv1654 argB)): 192.1 CPM and 153.5 CPM
log2 Fold change (gene MT1692 (Rv1654 argB)): −1.311
Counts per million (CPM) WT_HC101A (gene MT1693 (Rv1655 argD)): 174.4 CPM and 139.2 CPM
log2 Fold change (gene MT1693 (Rv1655 argD)): −1.193
Counts per million (CPM) WT_HC101A (gene MT1694 (Rv1656 argF)): 117.5 CPM and 85.88 CPM
log2 Fold change (gene MT1694 (Rv1656 argF)): −1.846
Counts per million (CPM) WT_HC101A (gene MT1725 (Rv1685c)): 12.49 CPM and 11.64 CPM
log2 Fold change (gene MT1725 (Rv1685c)): −1.401
Counts per million (CPM) WT_HC101A (gene MT1726 (Rv1686c)): 24.78 CPM and 27.99 CPM
log2 Fold change (gene MT1726 (Rv1686c)): −1.625
Counts per million (CPM) WT_HC101A (gene MT1727 (Rv1687c)): 20.07 CPM and 22.46 CPM
log2 Fold change (gene MT1727 (Rv1687c)): −1.58
Counts per million (CPM) WT_HC101A (gene MT1736): 131.3 CPM and 161 CPM
log2 Fold change (gene MT1736): −1
log2 Fold change (gene MT1774 (Rv1733c)): −4.488
Counts per million (CPM) WT_HC101A (gene MT1775): 38.24 CPM and 49.69 CPM
log2 Fold change (gene MT1775): −3.82
Counts per million (CPM) WT_HC101A (gene MT1776 (Rv1735c)): 2.811 CPM and 3.782 CPM
log2 Fold change (gene MT1776 (Rv1735c)): −2.478
log2 Fold change (gene MT1777): −4.737
log2 Fold change (gene MT1778 (Rv1736c narX)): −5.086
log2 Fold change (gene MT1779 (Rv1737c narK2)): −4.629
log2 Fold change (gene MT1780 (Rv1738)): −4.515
Counts per million (CPM) WT_HC101A (gene MT1797): 11.31 CPM and 15.53 CPM
log2 Fold change (gene MT1797): −1.988
Counts per million (CPM) WT_HC101A (gene MT1809 (Rv1760)): 57.13 CPM and 39.45 CPM
log2 Fold change (gene MT1809 (Rv1760)): 1.101
Counts per million (CPM) WT_HC101A (gene MT1822): 12.16 CPM and 7.273 CPM
log2 Fold change (gene MT1822): −1.109
